# Out of some 350,000 compounds screened, about 220 (0.063%) were called active. The inconclusive results got no clear call from the source; some entries with a clear call stand among them for comparison. The call rests on the fitted dose curve; in most records, active means well fitted activation curve with a large enough effect; inconclusive means small, poorly fitted or top-dose-only effect; inactive means no such curve, though single readings can be large or run the other way. A potency beside an inconclusive call is a rough fit, not a confirmed value.
# Experiment: qHTS for Activators of Integrin-Mediated Alleviation for Muscular Dystrophy; further: nearly all actives have a fitted effect of over 60% in size
# Conditions: alpha7betagal myoblasts, beta-gal FDG fluorescence, 48 h; series mostly up to 38.3 µM
# Outline: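 alpha7betagal+/- myoblasts (passage 13, 250/well) treated 48 h at 37C with compounds at 1:260 dilution of DMSO stock. Lysed, then beta-galactosidase activity read as FDG fluorescence (ex 480/em 540) after 30 min, with pre-read for autofluorescence.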
# Potency means the concentration at half of the fitted maximal effect.
row,SMILES,Potency
1,CCc1c(C)c2ccc(OC3CCCCC3=O)cc2oc1=O (stereo not drawn),"inconclusive: 28.2 µM [activator, single point]"
2,O=C(Nc1cccnc1Cl)c1cc2ccccc2o1,"inconclusive: 0.447 µM [activator, partial curve, poor fit]"
3,COc1cccc(C2c3c(oc4ccccc4c3=O)C(=O)N2CCCN(C)C)c1OC (stereo not drawn),"inconclusive: 3.55 µM [activator, partial curve, poor fit]"
4,Nc1ccc(S(=O)(=O)NC(Cc2ccccc2)C(=O)O)cc1 (stereo not drawn),"inconclusive: 5.01 µM [activator, single point]"
5,S=C(NCCC(c1ccccc1)c1ccccc1)Nc1cccc(Cl)c1,inactive
6,COc1ccccc1N(CC(=O)NC1CCCC1)S(=O)(=O)c1cccc(C(F)(F)F)c1,"inconclusive: 14.1 µM [activator, single point]"
7,Cc1ccc(NC(=O)CN2CCN(S(=O)(=O)c3ccc(F)cc3)CC2)cc1C,"inconclusive: 3.16 µM [activator, full curve, poor fit]"
8,COc1cccc(NC(=O)CCC2CCN(C(=O)c3ccc(C(C)=O)s3)CC2)c1,"inconclusive: 15.8 µM [activator, single point]"
9,COc1ccc(NC(=O)CN(C)C(=O)c2ccc(N3CCCC3)c([N+](=O)[O-])c2)cc1,inactive
10,Cc1nn(-c2ccc(N3CCOCC3)nn2)c(C)c1CCC(=O)Nc1ccc(F)cc1,"inconclusive: 12.6 µM [activator, single point]"
11,O=C(CSc1cn[nH]n1)Nc1cccc(C(=O)O)c1,"inconclusive: 2 µM [activator, partial curve, poor fit]"
12,CN1CCN(CC#CC2(O)CCCCC2)CC1,"inconclusive: 28.2 µM [activator, single point]"
13,Cc1ccc(S(=O)(=O)N2CCN(C(=O)COC(=O)COc3ccc(Cl)cc3)CC2)c(C)c1,"inconclusive: 0.447 µM [activator, full curve, poor fit]"
14,CCCCNc1ncnc2c1cnn2-c1ccc(Cl)cc1,inactive
15,CN(CCN1CCOCC1)Cc1nc(-c2ccccc2)no1,"inconclusive: 10 µM [activator, partial curve, poor fit]"
16,S=C(Nc1cccc(Cl)c1)Nc1ccc2c(c1)OCCO2,"inconclusive: 5.01 µM [activator, single point]"
17,Cc1ccc(C(=O)NNC(=O)/C=C\C(=O)O)cc1,"inconclusive: 6.31 µM [activator, partial curve, poor fit]"
18,O=C(Nc1nnc(-c2ccc(Cl)cc2)o1)c1nc2ccccc2s1,inactive

# A stretch from further up, for reference:
row,SMILES,Potency
12,CN1CCN(CC#CC2(O)CCCCC2)CC1,"inconclusive: 28.2 µM [activator, single point]"
13,Cc1ccc(S(=O)(=O)N2CCN(C(=O)COC(=O)COc3ccc(Cl)cc3)CC2)c(C)c1,"inconclusive: 0.447 µM [activator, full curve, poor fit]"

# — PubChem BioAssay AID624291 (National Center for Advancing Translational Sciences (NCATS), 2012)
